Results published in PubChem BioAssay AID2685 (National Center for Advancing Translational Sciences (NCATS), 2010).
Some of the results follow. The main result of the screen is listed elsewhere. These columns were measured beside it and carry no call. Most of these compounds were active or inconclusive in the main read-out, so they are no random draw. Words in brackets tell the shape of the fitted curve; partial curves, single points and poor fits give uncertain potencies.

Assay: qHTS Assay for Lipid Storage Modulators in Drosophila S3 Cells;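 as to cell number change: cells counted by Cell Tracker Red CMTPX staining in the red channel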
Conditions: BODIPY lipid droplet fluorescence, 18-24 h; for cell number change: measured here: cell count max response, cells fed with added oleic acid
How it was run: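 Drosophila S3 cells loaded with oleic acid (400 uM, as added) and compounds at several concentrations; lipid droplets imaged by 488-nm laser-scanning cytometry, 500–530 nm intensity and object ratio to cell channel. Percent activity normalized to 20 uM Triacsin C.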

[1] = measured here: cell number channel AC50, cells fed with added oleic acid
[2] = measured here: lipid fluorescence (Fed channel) AC50, cells fed with added oleic acid

## CS(=O)(=O)N(CC(=O)N1CCCC1)c1cccc(Cl)c1
[1]
  AC50: 0.184 µM [rising, full curve, poor fit]
[2]
  AC50: 0.231 µM [falling, full curve, poor fit]

## Cc1ccccc1NC(=O)c1[nH]cnc1C(=O)NN
  cell number change: 22.5%
[2]
  AC50: 29.1 µM [rising, single point]

## Cc1cc(C)c(C(=O)CC(=O)c2ccccc2Cl)c(O)c1
  cell number change: -2.04%
[2]
  AC50: 29.1 µM [falling, single point]

## CCOc1ccc(S(=O)(=O)N2CCCCC2)cc1NC(=O)CN1C(=O)NC(C)(c2ccccc2)C1=O (stereo unspecified)
  cell number change: -2.62%
[2]
  AC50: 2.91 µM [rising, single point]

## COC(=O)c1sc(-c2ccc(C(C)(C)C)cc2)cc1NC(=O)CSCC(=O)O
  cell number change: 24.6%

## CCc1ccc(CNC(=O)C2CCCN(S(=O)(=O)N(CC)c3ccccc3)C2)cc1 (stereo unspecified)
[2]
  AC50: 6.51 µM [rising, single point]

## Cc1ccc(N=Cc2c(O)[nH]c3ccccc23)c([N+](=O)[O-])c1
  cell number change: 32.9%
[1]
  AC50: 29.1 µM [rising, single point]

## O=C(NC1CCCCC1)c1ccccc1NC(=S)NC(=O)C1CC1
  cell number change: 4.39%
[2]
  AC50: 8.2 µM [rising, partial curve]

## CCCCCCCCCCS(=O)(=O)N/N=C/c1ccccc1OC
  cell number change: -39.6%
[1]
  AC50: 18.4 µM [falling, single point]

## N#Cc1ccc2c(c1)C[C@]1(CCCCN3C(=O)c4ccccc4C3=O)Oc3c(c(=O)oc4ccccc34)C2O1
  cell number change: 10.3%
[2]
  AC50: 5.31 µM [rising, single point]

## CCOc1ccc(N(CC(=O)N2CCN(C(=O)CN(c3ccc(OCC)cc3)S(C)(=O)=O)CC2)S(C)(=O)=O)cc1
  cell number change: 4.99%
[2]
  AC50: 29.1 µM [rising, single point]

## COc1ccc(NC(=O)CCNS(=O)(=O)c2ccccc2F)cc1S(N)(=O)=O
  cell number change: -9.52%

## O=C(NCCCN1CCOCC1)/C(=C/c1ccc(F)cc1)NC(=O)c1ccccc1
  cell number change: -40.4%
[2]
  AC50: 2.91 µM [rising, single point]

## Cc1cccc(NC(=O)c2cc(S(=O)(=O)c3ccccc3)ccc2Cl)c1
  cell number change: 12.2%
[2]
  AC50: 16.4 µM [rising, single point]

## CCc1ccc(Nc2nc(N)nc(CSc3nnnn3-c3ccccc3)n2)cc1
  cell number change: -34.3%
[1]
  AC50: 32.6 µM [falling, single point]

## CCCCN1C(=O)C(=O)N(CC(=O)Nc2sc(CC)cc2C(=O)OCC)C1=O
  cell number change: 5.79%
[2]
  AC50: 8.2 µM [rising, partial curve]

## CCOC(=O)C1=C(C)NC(=O)NC1c1ccc(N(CC)CC)cc1 (stereo unspecified)
  cell number change: -40.3%
[1]
  AC50: 23.1 µM [falling, single point]
[2]
  AC50: 23.1 µM [falling, partial curve]

## CCCCOC(=O)Nc1ccc(C)c(Cl)c1
  cell number change: -11.9%
[2]
  AC50: 14.6 µM [falling, partial curve]

## COc1ccc(C(=O)N/C(=C\c2cn(S(=O)(=O)N(C)C)c3ccccc23)C(=O)NC(C)C)cc1
  cell number change: -29.8%
[2]
  AC50: 6.51 µM [falling, full curve]

## O=C(CCN1C(=O)/C(=C\c2ccccc2)SC1=S)NCCCN1CCOCC1
[1]
  AC50: 0.146 µM [rising, full curve, poor fit]

## COc1cnc(-c2ccccn2)nc1Sc1ccc(Cl)cc1
  cell number change: -5.02%
[1]
  AC50: 0.411 µM [falling, single point]
[2]
  AC50: 6.51 µM [falling, single point]

## O=C(NCC(c1cccs1)N1CCOCC1)c1ccco1 (stereo unspecified)
  cell number change: 10.3%
[2]
  AC50: 2.06 µM [rising, partial curve]

## CC(C)CC1NC(=S)N(C2CCCCC2)C1=O (stereo unspecified)
  cell number change: -25.5%

## Cc1cc(NCCC(C)C)n2nc(C)c(-c3ccccc3)c2n1
  cell number change: 22.5%
[2]
  AC50: 0.58 µM [rising, single point]

## Cc1ccc(S(=O)(=O)N2CCCc3ccccc32)cc1C
  cell number change: 1.81%
[2]
  AC50: 6.51 µM [rising, single point]

## CN(C)c1ccc(C(=S)N2CCOCC2)cc1Br
  cell number change: 1.67%

## CC(c1ccccc1)C1CC(=O)N(Cc2ccco2)C1=O (stereo unspecified)
  cell number change: -2.68%

## CC1(C)CC(=O)C(N=Nc2ccc(-c3ccccc3)cc2)=C(O)C1
  cell number change: -30.9%
[1]
  AC50: 32.6 µM [falling, single point]

## OC(CNCCc1ccc(Cl)cc1)COCc1ccco1 (stereo unspecified)
  cell number change: 5.17%
[2]
  AC50: 6.51 µM [falling, single point]

## Cc1ccc(CNC(=S)NC2CCCCC2)cc1
  cell number change: 30.8%
[1]
  AC50: 5.8 µM [rising, partial curve, poor fit]
[2]
  AC50: 18.4 µM [rising, single point]

## COc1ccccc1CSc1nc2c(c(=O)n(C)c(=O)n2C)n1C
  cell number change: -23.6%
[2]
  AC50: 20.6 µM [rising, partial curve]

## CC1CC(C)CN(S(=O)(=O)CCNC(=O)c2ccc3c(c2)OCO3)C1 (stereo unspecified)
  cell number change: -24.7%
[1]
  AC50: 0.58 µM [falling, full curve, poor fit]
[2]
  AC50: 0.206 µM [falling, partial curve, poor fit]
